Laboratory results published in the supplement of paper PMC3334620.
The full ranking holds about 33,000 sequences; the median of “E-score (-0.5 to 0.5)” is about -8e-05, and the highest 2% start at about 0.23. The list shows a part of the results.

Molecular target: T1, Nrg2 (UniProt P38082)
T1 sequence: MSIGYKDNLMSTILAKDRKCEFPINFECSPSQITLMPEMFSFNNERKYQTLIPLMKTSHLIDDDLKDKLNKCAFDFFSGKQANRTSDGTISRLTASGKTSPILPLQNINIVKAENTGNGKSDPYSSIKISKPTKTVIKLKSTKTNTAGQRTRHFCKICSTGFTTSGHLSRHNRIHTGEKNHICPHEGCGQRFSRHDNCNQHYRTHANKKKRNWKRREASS
Experiment: PBM E-score (8-mer binding enrichment) (E-score (-0.5 to 0.5)); higher = stronger / more preferred TF binding
Settings: protein concentration: 100 nM; construct: GST-full length
In short: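 Universal all-10-mer Agilent arrays, fresh or stripped once, were converted to double-stranded form by primer extension. GST-tagged yeast transcription factors from PURExpress in vitro transcription/translation, full-length or DNA-binding domain only, were applied at about 100-200 nM and detected with fluorescent anti-GST. After masliner normalisation, the Universal PBM Analysis Suite scored each ungapped eight-base word together with its reverse complement by E-score.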

Going from GGGTGGCA to CCAGGCGG, the “PBM E-score” value rises from -0.0143 to 0.0432.

First: CGACCCGA
Second: AAGAATGT
The “PBM E-score” value of the first is lower: -0.0884 for the first, 0.107 for the second.

Going from AGACGCGC to AGGTCGAA, the “PBM E-score” value rises from 0.0845 to 0.145.

Going from CAGCGAAA to AGGACGCC, the “PBM E-score” value falls from -0.0452 to -0.145.

Going from CTAATCAA to CGTCTAAC, the “PBM E-score” value falls from 0.216 to -0.0775.

First: ATTAAGGC
Second: CACTTTAC
The “PBM E-score” value of the first is higher: 0.0412 for the first, -0.0431 for the second.

Going from GGTTACGA to ATGGGGTG, the “PBM E-score” value falls from 0.0861 to -0.013.

Compared with GTGGCCTA, CCCTTTCA is lower in “PBM E-score” value: -0.0216 for the first, -0.033 for the second.

First: CTCTTCCA
Second: ACATTATA
The “PBM E-score” value of the first is lower: -0.19 for the first, 0.189 for the second.

Going from GCTAATAC to ATTACAAG, the “PBM E-score” value falls from 0.119 to 0.0724.

Compared with CACGGGGA, GACAAGTC is lower in “PBM E-score” value: 0.0457 for the first, -0.119 for the second.

First: ATGAATCA
Second: ATAACGGG
The “PBM E-score” value of the first is higher: 0.172 for the first, -0.124 for the second.

Going from TTGATAAA to CCGTATCA, the “PBM E-score” value falls from 0.153 to 0.016.

Compared with GATCGGAC, GTTACCCA is lower in “PBM E-score” value: 0.031 for the first, -0.202 for the second.

Compared with AGGTGGTC, ATATGCAC is higher in “PBM E-score” value: -0.0416 for the first, 0.0901 for the second.

Going from ATCGTTGG to AAGTATCA, the “PBM E-score” value rises from -0.0345 to 0.122.

Compared with GCGATAGA, ACCTGAGG is lower in “PBM E-score” value: 0.0735 for the first, -0.134 for the second.

Compared with AAGATTAC, GCTACACC is lower in “PBM E-score” value: -0.0187 for the first, -0.122 for the second.

First: ACACGCGG
Second: ATATAGCA
The “PBM E-score” value of the first is higher: 0.0963 for the first, -0.00901 for the second.

Compared with CAAACCAA, ACATGTAG is lower in “PBM E-score” value: 0.214 for the first, 0.2 for the second.

Going from GCCTGGAA to CGCTACCC, the “PBM E-score” value falls from 0.0438 to -0.0608.

First: CAACACTG
Second: CGGCGATA
The “PBM E-score” value of the first is higher: 0.0542 for the first, -0.103 for the second.

First: AGTACAAA
Second: CGTTCAGA
The “PBM E-score” value of the first is higher: 0.06 for the first, -0.192 for the second.

Compared with AAACTGCC, CGATAACA is lower in “PBM E-score” value: 0.0123 for the first, 0.00415 for the second.

First: ATTGCATA
Second: ATGATGCA
The “PBM E-score” value of the first is higher: 0.149 for the first, 0.132 for the second.

Going from AACACGAG to CCGCAGAG, the “PBM E-score” value falls from 0.094 to -0.193.

Going from AAGCATGG to ACACAAAT, the “PBM E-score” value rises from -0.133 to 0.206.

Going from AGCTAACC to ACTGATAT, the “PBM E-score” value rises from -0.163 to 0.0251.

Going from ATGAGGAG to AGAAGCCA, the “PBM E-score” value rises from -0.19 to 0.025.

First: ATCGATGC
Second: CCCGTCAC
The “PBM E-score” value of the first is higher: -0.0258 for the first, -0.0719 for the second.

Compared with GACGATAA, AGCGGCAT is higher in “PBM E-score” value: 0.0704 for the first, 0.153 for the second.

Compared with CTTAATGA, AAATTTAT is higher in “PBM E-score” value: 0.0652 for the first, 0.114 for the second.

Compared with CCGACTAG, TTCACCAA is higher in “PBM E-score” value: -0.124 for the first, 0.0351 for the second.

Compared with GCATTTCC, GTCCAGGA is lower in “PBM E-score” value: 0.119 for the first, -0.0805 for the second.

Going from AATCACGG to GATCTTCC, the “PBM E-score” value falls from 0.145 to -0.177.

Compared with AGTATCAC, CCACACGG is higher in “PBM E-score” value: -0.0665 for the first, 0.0193 for the second.

First: ATGCGGAA
Second: GTCGTACA
The “PBM E-score” value of the first is lower: 0.0661 for the first, 0.099 for the second.

Compared with GAGATTTA, CGGCACAG is higher in “PBM E-score” value: -0.1 for the first, 0.069 for the second.

First: AACACTAC
Second: CACTATGC
The “PBM E-score” value of the first is lower: 0.0505 for the first, 0.0832 for the second.

First: AGAATCGC
Second: CCGCGAAA
The “PBM E-score” value of the first is lower: -0.0179 for the first, 0.0786 for the second.

First: CAAAGCTA
Second: ACGCCAAA
The “PBM E-score” value of the first is higher: -0.00225 for the first, -0.108 for the second.

Compared with ACTTAATA, AGCCGTGC is lower in “PBM E-score” value: 0.0629 for the first, -0.246 for the second.

Going from GGATTGAC to ACAACCAA, the “PBM E-score” value rises from 0.103 to 0.124.

Compared with GAGCATAC, AAAGCTTA is higher in “PBM E-score” value: -0.154 for the first, 0.00538 for the second.

Compared with AGTCCCAC, CGAATTCC is higher in “PBM E-score” value: -0.079 for the first, 0.125 for the second.

First: ATGCAATA
Second: TCACTTCA
The “PBM E-score” value of the first is higher: -0.00957 for the first, -0.139 for the second.

Going from GCAACAAC to CGAAATAA, the “PBM E-score” value rises from -0.00266 to 0.156.

Compared with AGCACCGG, GGTGTAGA is higher in “PBM E-score” value: -0.148 for the first, 0.0243 for the second.

Going from GCCTGGCA to ATCTCCAC, the “PBM E-score” value rises from -0.327 to -0.0729.

First: AATAAAAT
Second: AAGCGTTC
The “PBM E-score” value of the first is higher: 0.0899 for the first, -0.0849 for the second.

First: GATTCCCA
Second: AGACATCT
The “PBM E-score” value of the first is higher: 0.107 for the first, -0.0442 for the second.

Going from AGCATCCT to GGAGCGTA, the “PBM E-score” value falls from -0.0388 to -0.0749.

Going from ACAAATAT to TCTCTCAA, the “PBM E-score” value rises from 0.114 to 0.14.

Going from AGACAACA to AAGACACC, the “PBM E-score” value rises from 0.0138 to 0.0281.

First: ATTAGTCC
Second: AAACTAAC
The “PBM E-score” value of the first is lower: 0.139 for the first, 0.157 for the second.

Compared with ACTCGTTA, CTGGTAAG is higher in “PBM E-score” value: -0.145 for the first, -0.0923 for the second.

Going from ACATATTA to AAGAGGAA, the “PBM E-score” value falls from 0.223 to -0.0422.

First: AGGTTTGA
Second: ATGTGTGG
The “PBM E-score” value of the first is lower: -0.0326 for the first, 0.0214 for the second.

First: GATGCGCA
Second: GGCGGTAC
The “PBM E-score” value of the first is higher: 0.0768 for the first, -0.0721 for the second.

Compared with TCAGCGCA, CTAGAATC is higher in “PBM E-score” value: -0.0558 for the first, -0.0115 for the second.

Going from GCTTGGCC to CTTTAAAG, the “PBM E-score” value rises from -0.06 to -0.0201.

First: CATGTCAG
Second: CTGTCACC
The “PBM E-score” value of the first is higher: 0.128 for the first, -0.164 for the second.

First: GAAGCCTA
Second: AGTTGACG
The “PBM E-score” value of the first is lower: -0.14 for the first, 0.0891 for the second.

Going from AGTGAGCC to GATCAAAC, the “PBM E-score” value rises from 0.00986 to 0.0743.

Compared with CATCACTC, TCAGCCCA is higher in “PBM E-score” value: -0.101 for the first, 0.0927 for the second.

First: ATCGTCAT
Second: CACTAACA
The “PBM E-score” value of the first is higher: 0.109 for the first, 0.076 for the second.

Going from CGTTTCAC to ACACGAAC, the “PBM E-score” value rises from -0.00605 to 0.0826.

Going from CCTTCAAC to ACGACTGG, the “PBM E-score” value falls from -0.128 to -0.184.

Compared with CCTGCCTC, CCCGTACG is higher in “PBM E-score” value: -0.141 for the first, -0.0853 for the second.

First: CGGGGCAA
Second: AGACTATA
The “PBM E-score” value of the first is lower: -0.0179 for the first, 0.124 for the second.

Compared with AATTTCCT, CAGGATCC is higher in “PBM E-score” value: 0.029 for the first, 0.0919 for the second.

Compared with TTAGAGAA, CGCTTGCC is higher in “PBM E-score” value: -0.271 for the first, -0.0352 for the second.

Compared with CACGGACG, CAATTAAA is higher in “PBM E-score” value: 0.0471 for the first, 0.176 for the second.

Going from CGACGTCA to AGTAAACC, the “PBM E-score” value falls from 0.0858 to -0.0693.

Going from ACCGAAGT to CGGACACA, the “PBM E-score” value falls from 0.129 to -0.0544.

Compared with GGGAGGAC, CCCTCAGA is lower in “PBM E-score” value: 0.0465 for the first, -0.0586 for the second.

First: ATGCCTCC
Second: GAACCCCC
The “PBM E-score” value of the first is higher: -0.18 for the first, -0.322 for the second.

Compared with AATAGTCC, GGGGCAAA is higher in “PBM E-score” value: -0.0226 for the first, -0.006 for the second.

Compared with GCCGAAGA, GCCTAGCA is lower in “PBM E-score” value: -0.00219 for the first, -0.294 for the second.

Going from ACTGCAAC to GACATGTA, the “PBM E-score” value rises from -0.0824 to 0.183.

First: AAATGCCT
Second: CATCTAAA
The “PBM E-score” value of the first is lower: -0.141 for the first, -0.00644 for the second.

First: AATATCCT
Second: ATCCGGTC
The “PBM E-score” value of the first is higher: -0.0359 for the first, -0.215 for the second.

Compared with GTCCATAA, CCGGTCAG is lower in “PBM E-score” value: -0.0698 for the first, -0.145 for the second.

Compared with ACTAGGTG, AGCGCCCA is lower in “PBM E-score” value: -0.0507 for the first, -0.12 for the second.

Compared with GTCCGCTA, GAAGTGAA is higher in “PBM E-score” value: 0.0262 for the first, 0.115 for the second.

Going from GCGCCGCA to ATTAGGTA, the “PBM E-score” value falls from 0.119 to -0.0233.
